Experimental data taken from PMC8773839.

Legend:
Experiment in all cases: co-IP; HEK293T co-transfected with 3HA-SSTR (or an SSTR chimera) and 2Flag-MRAP1 or 2Flag-MRAP2; lysate immunoprecipitated with anti-HA overnight at 4 °C, protein A/G beads; blots with anti-HA and anti-Flag
[1] = biological target: S3(E3 + T5): SSTR2/SSTR3 chimera with ECL3 + TM5 of SSTR3 (mouse)
[2] = biological target: S3(E4 + T7): SSTR2/SSTR3 chimera with ECL4 + TM7 of SSTR3 (mouse)
[3] = biological target: S3(I3 + T6): SSTR2/SSTR3 chimera with ICL3 + TM6 of SSTR3 (mouse)
[4] = biological target: SSTR2 with ECL1-TM3 replaced by the corresponding region of SSTR3 (mouse)
[5] = biological target: SSTR2 with ECL1-TM3 replaced by the corresponding region of SSTR5 (mouse)
[6] = biological target: SSTR2 with ICL2-ICL4 replaced by the corresponding region of SSTR3 (mouse)
[7] = biological target: SSTR2 with ICL2-ICL4 replaced by the corresponding region of SSTR5 (mouse)
[8] = biological target: SSTR2/SSTR3 chimera E1 + T1 (ECL1 + TM1 of SSTR3) (mouse)
[9] = biological target: SSTR2/SSTR3 chimera E2 + T3 (ECL2 + TM3 of SSTR3) (mouse)
[10] = biological target: SSTR2/SSTR3 chimera I1 + T2 (ICL1 + TM2 of SSTR3) (mouse)
[11] = biological target: SSTR2/SSTR3 chimera I2 + T4 (ICL2 + TM4 of SSTR3) (mouse)
[12] = biological target: SSTR2/SSTR5 chimera E3 + T5 (ECL3 + TM5 of SSTR5) (mouse)
[13] = biological target: SSTR2/SSTR5 chimera E4 + T7 (ECL4 + TM7 of SSTR5) (mouse)
[14] = biological target: SSTR2/SSTR5 chimera I2 + T4 (ICL2 + TM4 of SSTR5) (mouse)
[15] = biological target: SSTR2/SSTR5 chimera I3 + T6 (ICL3 + TM6 of SSTR5) (mouse)

binding [1]: binds
binding [2]: binds
binding [3]: binds
binding [4]: binds
binding [5]: no binding
binding [6]: binds
binding [7]: binds
binding [8]: binds weakly
binding [9]: binds weakly
binding [10]: binds
binding [11]: no binding
binding [12]: no binding
binding [13]: binds
binding [14]: no binding
binding [15]: binds
B1: 2Flag-MRAP1 (melanocortin receptor accessory protein 1, mouse) (protein, UniProt Q9D159 1-127)
chain: MANGTDASVPLTSYEYYLDYIDLIPVDEKKLKANKHSIVIALWLSLATFVVLLFLILLYMSWSGSPQMRHSPQPQPICSWTHSFNLPLCLRRASLQTTEEPGRRAGTDQWLTQQSPSASAPGPLALP

Results are given in words; binding and its absence hold for the method and conditions named. Binding seen in cells or lysates may run through a third protein. For part of these data: A result given as binding can be weak or reduced; the word gives no strength. Where a sequence is shown, tags or fusion partners need not be part of it.
